Source: the supplement of paper PMC5949888
± gives the standard deviation of the averaged measurements. Most values lie at the floor of the assay. Slopes are relative: functional sequences can read slightly below zero.

Each substance was assayed on Saccharomyces cerevisiae PS128 hsf1 delta, HSF1(1-493) fusion (assay: growth estimate (transactivation domain function in HSF1 fusion, heat-shock survival) (a.u. (slope of normalised read count over time)); higher = stronger growth at 37°C, i.e. more transactivation activity). Conditions: library: random library.

Substance	growth estimate
DKHPPSVLTPSVCPRGVLHA	-0.245
VKVLSVRGPLDGHSHVFGRP	< -0.25
HCS	< -0.25
NIVLPDAYCILLRWWD	< -0.25
LDALGVRTRKAAAND	< -0.25
RLLQRRGWARSACLFDQSDP	< -0.25
LGSNWPGTDCRGWYIRLY	< -0.25
LAE	< -0.25
FENHTERPVYTVTKAFLLRP	< -0.25
RGYRGKSRG	< -0.25
LIVASNEP	< -0.25
WLNRQKRERVLGRERGNVLS	< -0.25
RGQQGT	< -0.25
RDQRLGYGITLRCRLVLDDW	< -0.25
TSTKIEPPPGTDATKA	< -0.25
KVSLVALGTVGQCRLPRLDN	< -0.25
KKPTPPRGGHVI	< -0.25
TTLGPYADVLSSLNSYAVLK	< -0.25
FLSNGLLEEGGFVYNCRHCR	< -0.25
RKAVAPNDHSGRRNQTTLQQ	< -0.25
ESDFL	< -0.25
QGSGLRFN	< -0.25
LKLTVRSP	< -0.25
SKSNLSDSVTVREGKF	< -0.25
TKV	< -0.25

Substance	growth estimate
RAKLCSRDLHPTQDSWACRP	< -0.25
LRHFISLNSTSARSSLSTRP	< -0.25
PSGAGLSGCLKFTLSPGKRQ	-0.231
CRF	< -0.25
GRLQLAARTLSSAI	< -0.25
LFFFKQFPSTE	< -0.25
PQHLGQEPKGQRSEGMATFR	< -0.25
IWSKNSIVVSVSSKGLSLGR	< -0.25
FVAIGHSNGL	< -0.25
HKRGLFL	< -0.25
GIDELPPEPRLGQARRAGTA	< -0.25
EPGSVVNTPPNESNSRTQPS	< -0.25
VWNRYDRFPYD	-0.198
DARPVVTRCNRLT	< -0.25
ARATTCRVANW	< -0.25
RTGFFGAWHLPCQLPRTLGC	< -0.25
MGLHEKNR	< -0.25
LGPGLNWED	< -0.25
GCVRASVQKFGTAKDRATVG	< -0.25
DEVLYGC	< -0.25
GSKARGLFSRVTNRTGARFG	< -0.25
GRAFR	< -0.25
CILFWEI	< -0.25
WQDDFA	< -0.25
RDYLADHSEIITLRRPWRRP	< -0.25

Substance	growth estimate
PESVRNARSAVDNDFGFAAV	-0.232
GGESRVCRASAWVQQVIKIR	< -0.25
LVVSGSV	< -0.25
SCYTSHLAGLGA	-0.203
QLVCGMISFLPPQGVGFIAT	< -0.25
TQRTSTFLPFRLGRYSSPAV	< -0.25
YAIGEGANRGHNSMGP	< -0.25
EALPSAQ	< -0.25
VSPVGT	< -0.25
QDRCAQCVIIQVGWSKVGIP	< -0.25
RDSEFRHCVAHSFFDGLVAA	< -0.25
VQVDTQRSSTILCGS	< -0.25
WLGRFCARNAFLS	< -0.25
NVHS	< -0.25
GLIARTLSHGWRCQWLLRVA	< -0.25
VCHWITGSGSNGGVCVQM	< -0.25
HQCPRTRHFSNEAHPSPLCG	< -0.25
FPRGCWIGCFNHADASELDY	< -0.25
RGVRKSRRIRVLVNCRYAQW	-0.239
EEMERVNR	< -0.25
RDQKTHRQGEVVEVGYPCKV	< -0.25
YSRKVFSGSVPG	< -0.25
TFVGLGCHTVT	-0.192
LSVSMRLNTGNRAWVKTRRD	< -0.25
TRS	-0.248 ± 0.0039

A stretch from the list above, as a working copy:
Substance	growth estimate
TFVGLGCHTVT	-0.192
LSVSMRLNTGNRAWVKTRRD	< -0.25
TRS	-0.248 ± 0.0039

Following part

Substance	growth estimate
NFETSIAAL	< -0.25
GYVLCTER	< -0.25
VTHDGPTRFAGHDLDLTARR	< -0.25
RPGGNGIGRRVPTATSHLNF	< -0.25
SKVKLGLAIEKLNQPRTVFL	< -0.25
GVFSPK	< -0.25
RDFAHCRRKDM	< -0.25
LIRSR	< -0.25
ERPMACF	< -0.25
IRWGCLSFVIGSS	< -0.25
VDFSTKSRRVGFFVRIHTR	< -0.25
DAGLRHRRRTFPSFHLLHSA	< -0.25
QRYELKLWAEDQASAPVLTL	< -0.25
GEPIAGRIIKCTVRRRRKTP	< -0.25
PGISLWALSV	< -0.25
ILFADCISWVYVNKWDVYCG	< -0.25
QRSVSLETRISCHPLRG	< -0.25
IKANRVVDSYRHVRRKASLQ	< -0.25
TNAAVRLFLRRDSINAGTKR	< -0.25
LAKSWANSVSR	< -0.25
DETKRLRIVTLCSKSDSIQA	< -0.25
QYGVLPWRANIVPYFVVNRS	< -0.25
YCICGKKCTHYSRL	< -0.25
REVC	< -0.25
DRLTLVLLVGLVAAGSLWNP	< -0.25

Another view of part of the listing above.
Substance,growth estimate
GEPIAGRIIKCTVRRRRKTP,< -0.25
PGISLWALSV,< -0.25
ILFADCISWVYVNKWDVYCG,< -0.25

The list goes on:

Substance	growth estimate
RNCTTMVSVPC	< -0.25
RDAIRTAKMAVLAHVMGQRT	< -0.25
LSADLVYTGLVLLRSISHST	< -0.25
KSLVSCIEDVL	< -0.25
KIQKTHVRYCSVYHQAARIP	< -0.25
FSILRDSWGENGRRCGHTGV	< -0.25
PRS	< -0.25
RRLLTKGADLIRYLSLEGPT	< -0.25
SSLVSNTLQGIPPWVPPNPQ	< -0.25
CVSEGSRHG	< -0.25
RSPGTFDDRPKSDLG	< -0.25
NTESHG	< -0.25
VRR	< -0.25
LVWVCGSFQE	< -0.25
KKLACLFLSWIV	< -0.25
NYLHFPGLRMVGAWPLFVTG	< -0.25
RKGKMSCFYPSRCETGHACI	< -0.25
KSMLLKYYLVSSKL	< -0.25
GSAIRRSSFKWVSRSSGARG	< -0.25
FPHP	< -0.25
EPSFGTTHSPFRVRVGTFVL	< -0.25
DQMGESELRPRRNGGIDAWS	< -0.25
GHGRVWHRFRISVFHSHLPT	< -0.25
ITVGL	< -0.25
VGLD	< -0.25

Reprinted at random: seven records from the list
Substance	growth estimate
RKGKMSCFYPSRCETGHACI	< -0.25
FSILRDSWGENGRRCGHTGV	< -0.25
DQMGESELRPRRNGGIDAWS	< -0.25
LSADLVYTGLVLLRSISHST	< -0.25
GHGRVWHRFRISVFHSHLPT	< -0.25
SSLVSNTLQGIPPWVPPNPQ	< -0.25
RDAIRTAKMAVLAHVMGQRT	< -0.25

Following part:

Substance	growth estimate
VAEVRKVDSPVRVERVDKSS	< -0.25
LPTRGIYSGVKTSFRLRPFL	< -0.25
VSPDANCDFRACF	< -0.25
ETLYFCFALAIERGKISRGS	< -0.25
TSPGCMDTVTLYEPKHSSHD	< -0.25
SEYYTHAPGRGGRNRE	< -0.25
SVVRLSIVICTTGAGDSRSQ	< -0.25
FAHGTFGACAAAEPSKLRVR	-0.192
KAC	< -0.25
IQKAGDTFSRVKGGWMVRPT	< -0.25
YDSTSVSPTLSDCYAVDLSD	< -0.25
SKQCEIWSTTHRSN	< -0.25
CRKARC	< -0.25
RGIVDASQLADIIQSCVGPA	< -0.25
HYAYIL	< -0.25
LASRVRPLWGYVTFKIERWE	< -0.25
IHRVDRMSKNNPLGATV	< -0.25
LVKRR	< -0.25
CHPTGTCQPRLCITGLGSQQ	< -0.25
ELRIYLPKIKR	< -0.25
TWCCLEFIPVTGTLVATSPE	< -0.25
TPR	< -0.25
SAVNGNARGRPMAYSRWVRG	< -0.25
LFMR	< -0.25
GVK	< -0.25

Substance	growth estimate
AVPE	< -0.25
VVIVSNMAL	< -0.25
SSVYT	< -0.25
ACTVGTVVNVRPNSCIWQMR	< -0.25
FGTQVHDDYSAMLGYTWAYT	2.16
KFYKTITTKHDT	< -0.25
RSGSDVLRSVLGLWYLV	< -0.25
LSYSAISTSPRGLRLSNARR	< -0.25
VLCWGTAKV	< -0.25
CVQICRRNEIS	< -0.25
TSTVLKCRGQTSSSGLANIA	< -0.25
RIAKVEQRYRH	-0.248
GKTCSTSYYKAPGHSTEPGV	< -0.25
FVEKGGTDSVSSIFAAEELA	< -0.25
GFDSELSQAVRARYPMTPPT	< -0.25
KIRIHEYLSSPSSNGAESGC	< -0.25
IPIK	< -0.25
GNSILNIAADYGQITRSMLT	< -0.25
IDGRKSTPAVQILCGVEHTS	< -0.25
LIGL	< -0.25
PSRGTASLTLVRSEPT	< -0.25
IQLAIVNDRQPQKFTTWVLA	< -0.25
DRGTYAGGSGRSK	< -0.25
STQQCYLS	< -0.25
VTPH	< -0.25

Substance	growth estimate
FQR	-0.243
RTTR	< -0.25
HAGISGPLHPVIVYWMPV	< -0.25
PQATGL	< -0.25
YIRVIGISPGPVQQGGPVRT	-0.25
SEEANIIRLSTWQRY	< -0.25
GLANGTVAPGPVLIH	< -0.25
DTVVCYEVVRTLGRGLSETT	0.899
FRLLTTACPTEITGRYPGRT	< -0.25
PCGGSVSERSGSGVRYLVGF	< -0.25
SAWIFARVNTIESWLSVQPF	< -0.25
TGMRGGVNSLVPVRPPTTW	< -0.25
SFVLMETVRLRPYILLPTPG	< -0.25
FLRVNDLVEAAQRTVCSAGQ	< -0.25
FYSWAGKVFPSTRPNSIVGP	-0.246
ALGH	< -0.25
RYNLTSVVRWSLRL	-0.245
TFFPALYKYVSS	< -0.25
GRG	< -0.25
DMGPM	< -0.25
CYLGISSLITCVGSTRVFDK	< -0.25
GLNAVVVNTCTRTPQG	< -0.25
MFGVGSNQDGYIMIDAFYLR	< -0.25
TRLDSRLQLI	< -0.25
FWEALGKGRRLTYCTSGPRQ	< -0.25
